Here are results for 42 sequences from publication PMC7819943, “Rice protein-binding microarrays: a tool to detect cis-acting elements near promoter regions in rice”.

By UniProt entry, the sequences of proteins in these tests, tags left out.
UniProt Q0JBA9, entry or part of it: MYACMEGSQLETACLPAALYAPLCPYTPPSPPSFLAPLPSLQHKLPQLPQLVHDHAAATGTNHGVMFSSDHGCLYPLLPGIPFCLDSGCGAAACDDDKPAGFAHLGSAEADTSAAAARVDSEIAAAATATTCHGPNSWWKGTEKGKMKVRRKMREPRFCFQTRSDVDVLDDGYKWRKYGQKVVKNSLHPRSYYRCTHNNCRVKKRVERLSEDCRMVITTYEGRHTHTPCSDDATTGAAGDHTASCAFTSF

Some of the results follow.

This test deals with OsWRKY34 (Oryza sativa, UniProt Q0JBA9 1-250). The test can be described thus: protein-binding microarray (RPBM); PBS, 2% BSA, 51.3 ng/ul salmon testes DNA, 50 uM zinc acetate, 200 nM TF, 25 C, 1 h; high values mean tight binding. The note with it: protein: recombinant; tags: N-terminal polyhistidine and DsRed monomer fusion (pET32a); label: CyDye5-dUTP incorporated in the synthesized complementary strand; 3' TTTTT single-stranded linker to array surface; dsDNA, one strand shown. The gist of the method:
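The binding signal is fluorescence intensity per feature, in arbitrary units, read on an Axon 4000B scanner. Polyhistidine- and DsRed-tagged transcription factors (N-terminal fusions) from E. coli BL21-CodonPlus were purified on Ni–NTA and applied at 200 nM for 1 h at 25 °C to a double-stranded, BSA-blocked custom Agilent array in buffer with 50 µM zinc acetate.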
Turning to “GACACACTAAGAGTTAATTAAACTCTTCACTCTCGTAGGCCGGAGTCACCTAGTGCAG”, the binding signal was 8180 fluorescence intensity (a.u.).
The figure for “TATATATATATATATGCCTCAATGGTTTTGACCAGAAGCTCGGAGTCACCTAGTGCAG” is 9420 fluorescence intensity (a.u.); for “TCTGGAGTTTCCGTGTTCAACTTTAATTATCCGTCTTATTCGGAGTCACCTAGTGCAG” it is 10000 fluorescence intensity (a.u.).
The figure for “TGTCACCTTCCGCTGTCATTTCTACGCCCACTCTCTCTTACGGAGTCACCTAGTGCAG” is 8950 fluorescence intensity (a.u.).
As to “AACTTTGAGCAGTCGTTATTACTAGCTTCATTGTGGGGTTCGGAGTCACCTAGTGCAG”, the binding signal was 8300 fluorescence intensity (a.u.).
The figure for “TCCTTGCTCGCCGCTCGCGTTCGTCGTCGTCTCGTCGTTTCGGAGTCACCTAGTGCAG” is 8930 fluorescence intensity (a.u.).
The figure for “TTTGAAGCACTGAAATCTTTTCTGTTTTTGTTGTTTCGCTCGGAGTCACCTAGTGCAG” is 8390 fluorescence intensity (a.u.); for “GTTAGTAATACTTGATGGTCTTTTCTCCTTGGCCTTTCGTCGGAGTCACCTAGTGCAG” it is 10400 fluorescence intensity (a.u.); for “CTGCTTTTTCTACCCTCGATATATATTGTGCTAGATACTACGGAGTCACCTAGTGCAG” it is 12500 fluorescence intensity (a.u.).
In the case of “TCTTTTTGTCCTTTGCTACTCTACCTATATATGCAAAGTTCGGAGTCACCTAGTGCAG” it was 10300 fluorescence intensity (a.u.).
“GGTCAGATTTTCACCTTTTGGTGGCAACGTTGTTTTGCCACGGAGTCACCTAGTGCAG”: the binding signal is 9060 fluorescence intensity (a.u.).
In the case of “TTTGTCCAGAATCGTTGTCCTAAGTGGTGTCACATCCTCACGGAGTCACCTAGTGCAG” it was 12000 fluorescence intensity (a.u.).
In the case of “GTACACTCTCCACCATGTATTAATTTTTTTCATCCAATAACGGAGTCACCTAGTGCAG” it was 11300 fluorescence intensity (a.u.).
The figure for “TAGGCATGTTTGGTACGGCTCCAACTCTAGCTTCAACTCTCGGAGTCACCTAGTGCAG” is 8130 fluorescence intensity (a.u.).
Take “GGAGGGAGACGGGTGGGGATCAGCCGCCGAGGACGGGGAGCGGAGTCACCTAGTGCAG”: the binding signal was 9110 fluorescence intensity (a.u.).
As to “GAATCAATCTCACGTACGGTAAGTCTTTCATTTTCCTGCCCGGAGTCACCTAGTGCAG”, the binding signal is 8570 fluorescence intensity (a.u.).
As for “TGTGTGTGGCCGCCTTAAACCCTAAACCCTCTCAACCATGCGGAGTCACCTAGTGCAG”, the binding signal is 8810 fluorescence intensity (a.u.).
The figure for “TGACACCGTTGACTTTTCGACCAATGTTTGACCATTCGTTCGGAGTCACCTAGTGCAG” is 24400 fluorescence intensity (a.u.).
Consider “CGTTGCAAGGTGGTGTGAGTTGTTTTCCTGGATTCTTGAACGGAGTCACCTAGTGCAG”, for which the binding signal was 9750 fluorescence intensity (a.u.).
In the case of “GTGGCCTCCGGCGAGGTCGAGCACCTCTTTCCTATCACGCCGGAGTCACCTAGTGCAG” it was 8440 fluorescence intensity (a.u.).
In the case of “AGTTCTCTGATTTTGGATGGGGATTTGCTTGATGGATCCGCGGAGTCACCTAGTGCAG” it was 13200 fluorescence intensity (a.u.); in that of “GGGGCTCACGCTGACTCCGCGTTATTGACTCGGGTCAAATCGGAGTCACCTAGTGCAG”, 9490 fluorescence intensity (a.u.); in that of “TCTGGTCGTTACCTAATTTGCATGCTCGTTTCTTGTGGTGCGGAGTCACCTAGTGCAG”, 8540 fluorescence intensity (a.u.).
The figure for “AACCCAACCAACGAAAAATTGCCGCGACCATCAGCTTGTCCGGAGTCACCTAGTGCAG” is 8570 fluorescence intensity (a.u.); for “GGTCCCTATTAGGTTATCTTTTTGTTCTTGTAATGGTTATCGGAGTCACCTAGTGCAG” it is 9590 fluorescence intensity (a.u.); for “TCCACACACCCCGCTTGCTAACCAACCGTGACACGCAACCCGGAGTCACCTAGTGCAG” it is 10100 fluorescence intensity (a.u.).
Take “CTATGGTTTTTACTGGGCACTTGAGTTGTTGGGCTGGGCACGGAGTCACCTAGTGCAG”: the binding signal is 12300 fluorescence intensity (a.u.).
In the case of “GGAGGAGGCTGGTAGGGGAGGCGGGAGTCCGGCGGCGAGGCGGAGTCACCTAGTGCAG” it was 8640 fluorescence intensity (a.u.); in that of “AAATTTTCATATCTCTCTCCTCCTTTTTTTCCCTTTTTCCCGGAGTCACCTAGTGCAG”, 9900 fluorescence intensity (a.u.).
For “GACAACCTGGAGCCCGACGACGACGAGGGGATGGGGAGGGCGGAGTCACCTAGTGCAG”, the binding signal was 8810 fluorescence intensity (a.u.).
Consider “GGGAGGGGCGGCGATCTCCATCTGGCGAGCGAGCAGAGCACGGAGTCACCTAGTGCAG”, for which the binding signal was 8510 fluorescence intensity (a.u.).
On to “ACATGTACTCTAGGTCTCTAGTATCCTTGGCGCCGTTAAACGGAGTCACCTAGTGCAG”, for which the binding signal was 8650 fluorescence intensity (a.u.).
In the case of “TAATGACGTTCTAGTGTCCCTGTTCGTTTTTCGTGTCACCCGGAGTCACCTAGTGCAG” it was 12500 fluorescence intensity (a.u.); in that of “ATGTCTATCAACCCTTTATTTATGTTATTGTTCATGTTTGCGGAGTCACCTAGTGCAG”, 9860 fluorescence intensity (a.u.); in that of “GTACACGCCTACCACACTTATGTTATTACTGGTGGCTCTACGGAGTCACCTAGTGCAG”, 8970 fluorescence intensity (a.u.).
In the case of “ACCCCACCTACACACTCTTCTTCCTCCTCTTCCTTCTTCTCGGAGTCACCTAGTGCAG” it was 10100 fluorescence intensity (a.u.); in that of “ACGCTGCAATGGCATCTTCCCCTGTCCTTCGCGTACGTGACGGAGTCACCTAGTGCAG”, 8340 fluorescence intensity (a.u.); in that of “ACCCATTTTCAGGTTTTTTAGCTATATTTAATTAACCATGCGGAGTCACCTAGTGCAG”, 10800 fluorescence intensity (a.u.).
In the case of “TTCCATTGGTATATTGTCTCATTGAGTTAGTATTGCTTTTCGGAGTCACCTAGTGCAG” it was 9480 fluorescence intensity (a.u.); in that of “GGTCGACTCCTTCTACCGCCGCGACCTCCCCGATCTCCTGCGGAGTCACCTAGTGCAG”, 9130 fluorescence intensity (a.u.); in that of “CTCACAAACTTATGCTCCCTATTGTCATTTTGGTACCTATCGGAGTCACCTAGTGCAG”, 9340 fluorescence intensity (a.u.).
With “GTGTAAGTGGTAAGTTTGTTGCTTTGCAAATGCTTTGCATCGGAGTCACCTAGTGCAG”, the binding signal was 9870 fluorescence intensity (a.u.).
